# Changes are numbered by the printed parent chain. No constants are given. Whether binding was seen depends on the method and setting.
# B1: 1C36, affinity-matured variant of E7, as IgG (antibody, V domains shown)
# VH: EVQLVQSGAEVKKPGASVKVSCKASGYTFTDYFIHWVRQAPGQGLEWIGGIVYDATGFTTYAEEFKGRVTITRDTSTSTAYLELSSLRSEDTAVYYCARGGIFYGMDYWGQGTLVTVSS
# VL: DIQMTQSPSSLSASVGDRVTITCKASQSVINDAAWYQQKPGKAPKLLIYYTSHRYTGVPSRFSGSGSGTDFTLTISSLQEDFATYYCQQDYTHPWTFGQGTKVEIKR
# B2: 1C60, affinity-matured variant of E7, as IgG (antibody, V domains shown)
# VH: B1 VH with G49A, T60V, E63D, E64D
# VL: B1 VL with T92K
# B3: humanized antibody 19C11 (hu19C11) as IgG (antibody, V domains shown)
# VH: EVQLVQSGAEVKKPGASVKVSCKASGYTFTDYSMHWVRQAPGQGLEWIVWINTETGEPTYADDFKGRVTITRDTSTSTAYLELSSLRSEDTAVYYCARGGIFYGMDYWGQGTLVTVSS
# VL: B1 VL with H93S
# B4: 5A as human IgG1 (antibody, V domains shown)
# VH: B3 VH with S33D, M34I, G99E, G100I, I101L
# VL: B1 VL with H93S
# B5: B1 as human IgG1 (antibody, V domains shown)
# VH: B3 VH with S33L, V49A, W50V, N52V, T53S, E54I, E57R, P58T, T59Y
# VL: DIQMTQSPSSLSASVGDRVTITCKASQSVINDAAWYQQKPGKAPKLLIYYTSHRYTGVPSRFSGSGSGTDFTLTISSLQEDFATYYCQQDYTPFPLTFGQGTKVEIKR
# B6: F2 as human IgG1 (antibody, V domains shown)
# VH: EVQLVQSGAEVKKPGASVKVSCKASGYTFTDYSMHWVRQAPGQGLEWIGIIFYTGHTYYADDFKGRVTITRDTSTSTAYLELSSLRSEDTAVYYCARGGIFYGMDYWGQGTLVTVSS
# VL: B1 VL with H93S
# Molecular target: VEGF
# Assay: ELISA: IgG at 100 nM on immobilized protein, anti-IgG-HRP [panel A]
row,Binder,binding
1,B1,no binding (tested: 100 nM)
2,B2,no binding (tested: 100 nM)

# Molecular target: Flt1 ECD
# Assay: ELISA: human IgG1 at 250 nM on protein-coated wells, anti-Fc-HRP
row,Binder,binding
1,B3,no binding (tested: 250 nM)
2,B4,no binding (tested: 250 nM)
3,B5,no binding (tested: 250 nM)
4,B6,no binding (tested: 250 nM)

# Molecular target: VEGF
# Assay: as above
row,Binder,binding
1,B3,no binding (tested: 250 nM)
2,B4,no binding (tested: 250 nM)
3,B5,no binding (tested: 250 nM)
4,B6,no binding (tested: 250 nM)

# Reference: patent publication US20160257744A1
